Measured values from patent US20030087319A1 (published 2003).

Protein sequences, listed by entry. Tags and fused reporters are not part of them. Lines headed by an entry give the natural chain unless they say otherwise; changes in a name come on top.
UniProt P55210: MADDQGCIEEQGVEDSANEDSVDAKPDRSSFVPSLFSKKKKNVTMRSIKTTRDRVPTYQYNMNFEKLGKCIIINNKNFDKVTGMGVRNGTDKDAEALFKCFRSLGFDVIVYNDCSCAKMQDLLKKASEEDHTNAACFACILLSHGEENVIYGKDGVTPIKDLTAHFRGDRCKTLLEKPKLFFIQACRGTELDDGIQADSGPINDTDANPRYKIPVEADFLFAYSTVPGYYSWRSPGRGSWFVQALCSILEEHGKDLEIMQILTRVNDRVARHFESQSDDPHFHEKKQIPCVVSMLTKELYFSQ
UniProt O15392: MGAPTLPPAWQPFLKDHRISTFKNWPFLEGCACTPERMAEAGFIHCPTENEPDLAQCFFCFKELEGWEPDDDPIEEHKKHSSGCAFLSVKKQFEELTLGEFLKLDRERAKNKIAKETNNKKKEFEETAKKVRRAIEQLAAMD

Molecular target: recombinant active caspase-7 (PharMingen) (UniProt P55210)
Test: in vitro binding, 35S-labeled survivin with recombinant active caspase-7, immunoprecipitation with caspase-specific antibody, SDS-PAGE, autoradiography

In the case of “survivin (35[S]-methionine-labeled, in vitro translated) (from UniProt O15392 1-142)”, the binding is reported as “binds”.

No constants are given. Whether binding was seen depends on the method and setting. A result given as binding can be weak or reduced; the word gives no strength.
